Test [1] has as its target T1, Growth arrest and DNA-damage inducible protein 45 beta (Gadd45b) (rat (endogenous in primary cortical neurons)) (UniProt F7FLQ8).
T1 sequence: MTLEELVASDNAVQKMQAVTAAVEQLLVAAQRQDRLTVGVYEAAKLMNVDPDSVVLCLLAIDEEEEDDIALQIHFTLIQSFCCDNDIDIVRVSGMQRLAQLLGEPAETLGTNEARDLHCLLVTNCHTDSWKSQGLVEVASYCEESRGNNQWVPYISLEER
Nature of the test: co-IP; lysate of primary rat cortical neurons, normal or OGD 3 h and reperfusion 24 h; 1 ug anti-Huwe1, anti-Gadd45b or anti-IgG antibody at 4 °C overnight, magnetic beads 10 min at room temperature, washed 3 times with PBS/Tween, Western blot; IgG as negative control.

Chains of the proteins cited; added tags and fusions are not shown.
UniProt P51593: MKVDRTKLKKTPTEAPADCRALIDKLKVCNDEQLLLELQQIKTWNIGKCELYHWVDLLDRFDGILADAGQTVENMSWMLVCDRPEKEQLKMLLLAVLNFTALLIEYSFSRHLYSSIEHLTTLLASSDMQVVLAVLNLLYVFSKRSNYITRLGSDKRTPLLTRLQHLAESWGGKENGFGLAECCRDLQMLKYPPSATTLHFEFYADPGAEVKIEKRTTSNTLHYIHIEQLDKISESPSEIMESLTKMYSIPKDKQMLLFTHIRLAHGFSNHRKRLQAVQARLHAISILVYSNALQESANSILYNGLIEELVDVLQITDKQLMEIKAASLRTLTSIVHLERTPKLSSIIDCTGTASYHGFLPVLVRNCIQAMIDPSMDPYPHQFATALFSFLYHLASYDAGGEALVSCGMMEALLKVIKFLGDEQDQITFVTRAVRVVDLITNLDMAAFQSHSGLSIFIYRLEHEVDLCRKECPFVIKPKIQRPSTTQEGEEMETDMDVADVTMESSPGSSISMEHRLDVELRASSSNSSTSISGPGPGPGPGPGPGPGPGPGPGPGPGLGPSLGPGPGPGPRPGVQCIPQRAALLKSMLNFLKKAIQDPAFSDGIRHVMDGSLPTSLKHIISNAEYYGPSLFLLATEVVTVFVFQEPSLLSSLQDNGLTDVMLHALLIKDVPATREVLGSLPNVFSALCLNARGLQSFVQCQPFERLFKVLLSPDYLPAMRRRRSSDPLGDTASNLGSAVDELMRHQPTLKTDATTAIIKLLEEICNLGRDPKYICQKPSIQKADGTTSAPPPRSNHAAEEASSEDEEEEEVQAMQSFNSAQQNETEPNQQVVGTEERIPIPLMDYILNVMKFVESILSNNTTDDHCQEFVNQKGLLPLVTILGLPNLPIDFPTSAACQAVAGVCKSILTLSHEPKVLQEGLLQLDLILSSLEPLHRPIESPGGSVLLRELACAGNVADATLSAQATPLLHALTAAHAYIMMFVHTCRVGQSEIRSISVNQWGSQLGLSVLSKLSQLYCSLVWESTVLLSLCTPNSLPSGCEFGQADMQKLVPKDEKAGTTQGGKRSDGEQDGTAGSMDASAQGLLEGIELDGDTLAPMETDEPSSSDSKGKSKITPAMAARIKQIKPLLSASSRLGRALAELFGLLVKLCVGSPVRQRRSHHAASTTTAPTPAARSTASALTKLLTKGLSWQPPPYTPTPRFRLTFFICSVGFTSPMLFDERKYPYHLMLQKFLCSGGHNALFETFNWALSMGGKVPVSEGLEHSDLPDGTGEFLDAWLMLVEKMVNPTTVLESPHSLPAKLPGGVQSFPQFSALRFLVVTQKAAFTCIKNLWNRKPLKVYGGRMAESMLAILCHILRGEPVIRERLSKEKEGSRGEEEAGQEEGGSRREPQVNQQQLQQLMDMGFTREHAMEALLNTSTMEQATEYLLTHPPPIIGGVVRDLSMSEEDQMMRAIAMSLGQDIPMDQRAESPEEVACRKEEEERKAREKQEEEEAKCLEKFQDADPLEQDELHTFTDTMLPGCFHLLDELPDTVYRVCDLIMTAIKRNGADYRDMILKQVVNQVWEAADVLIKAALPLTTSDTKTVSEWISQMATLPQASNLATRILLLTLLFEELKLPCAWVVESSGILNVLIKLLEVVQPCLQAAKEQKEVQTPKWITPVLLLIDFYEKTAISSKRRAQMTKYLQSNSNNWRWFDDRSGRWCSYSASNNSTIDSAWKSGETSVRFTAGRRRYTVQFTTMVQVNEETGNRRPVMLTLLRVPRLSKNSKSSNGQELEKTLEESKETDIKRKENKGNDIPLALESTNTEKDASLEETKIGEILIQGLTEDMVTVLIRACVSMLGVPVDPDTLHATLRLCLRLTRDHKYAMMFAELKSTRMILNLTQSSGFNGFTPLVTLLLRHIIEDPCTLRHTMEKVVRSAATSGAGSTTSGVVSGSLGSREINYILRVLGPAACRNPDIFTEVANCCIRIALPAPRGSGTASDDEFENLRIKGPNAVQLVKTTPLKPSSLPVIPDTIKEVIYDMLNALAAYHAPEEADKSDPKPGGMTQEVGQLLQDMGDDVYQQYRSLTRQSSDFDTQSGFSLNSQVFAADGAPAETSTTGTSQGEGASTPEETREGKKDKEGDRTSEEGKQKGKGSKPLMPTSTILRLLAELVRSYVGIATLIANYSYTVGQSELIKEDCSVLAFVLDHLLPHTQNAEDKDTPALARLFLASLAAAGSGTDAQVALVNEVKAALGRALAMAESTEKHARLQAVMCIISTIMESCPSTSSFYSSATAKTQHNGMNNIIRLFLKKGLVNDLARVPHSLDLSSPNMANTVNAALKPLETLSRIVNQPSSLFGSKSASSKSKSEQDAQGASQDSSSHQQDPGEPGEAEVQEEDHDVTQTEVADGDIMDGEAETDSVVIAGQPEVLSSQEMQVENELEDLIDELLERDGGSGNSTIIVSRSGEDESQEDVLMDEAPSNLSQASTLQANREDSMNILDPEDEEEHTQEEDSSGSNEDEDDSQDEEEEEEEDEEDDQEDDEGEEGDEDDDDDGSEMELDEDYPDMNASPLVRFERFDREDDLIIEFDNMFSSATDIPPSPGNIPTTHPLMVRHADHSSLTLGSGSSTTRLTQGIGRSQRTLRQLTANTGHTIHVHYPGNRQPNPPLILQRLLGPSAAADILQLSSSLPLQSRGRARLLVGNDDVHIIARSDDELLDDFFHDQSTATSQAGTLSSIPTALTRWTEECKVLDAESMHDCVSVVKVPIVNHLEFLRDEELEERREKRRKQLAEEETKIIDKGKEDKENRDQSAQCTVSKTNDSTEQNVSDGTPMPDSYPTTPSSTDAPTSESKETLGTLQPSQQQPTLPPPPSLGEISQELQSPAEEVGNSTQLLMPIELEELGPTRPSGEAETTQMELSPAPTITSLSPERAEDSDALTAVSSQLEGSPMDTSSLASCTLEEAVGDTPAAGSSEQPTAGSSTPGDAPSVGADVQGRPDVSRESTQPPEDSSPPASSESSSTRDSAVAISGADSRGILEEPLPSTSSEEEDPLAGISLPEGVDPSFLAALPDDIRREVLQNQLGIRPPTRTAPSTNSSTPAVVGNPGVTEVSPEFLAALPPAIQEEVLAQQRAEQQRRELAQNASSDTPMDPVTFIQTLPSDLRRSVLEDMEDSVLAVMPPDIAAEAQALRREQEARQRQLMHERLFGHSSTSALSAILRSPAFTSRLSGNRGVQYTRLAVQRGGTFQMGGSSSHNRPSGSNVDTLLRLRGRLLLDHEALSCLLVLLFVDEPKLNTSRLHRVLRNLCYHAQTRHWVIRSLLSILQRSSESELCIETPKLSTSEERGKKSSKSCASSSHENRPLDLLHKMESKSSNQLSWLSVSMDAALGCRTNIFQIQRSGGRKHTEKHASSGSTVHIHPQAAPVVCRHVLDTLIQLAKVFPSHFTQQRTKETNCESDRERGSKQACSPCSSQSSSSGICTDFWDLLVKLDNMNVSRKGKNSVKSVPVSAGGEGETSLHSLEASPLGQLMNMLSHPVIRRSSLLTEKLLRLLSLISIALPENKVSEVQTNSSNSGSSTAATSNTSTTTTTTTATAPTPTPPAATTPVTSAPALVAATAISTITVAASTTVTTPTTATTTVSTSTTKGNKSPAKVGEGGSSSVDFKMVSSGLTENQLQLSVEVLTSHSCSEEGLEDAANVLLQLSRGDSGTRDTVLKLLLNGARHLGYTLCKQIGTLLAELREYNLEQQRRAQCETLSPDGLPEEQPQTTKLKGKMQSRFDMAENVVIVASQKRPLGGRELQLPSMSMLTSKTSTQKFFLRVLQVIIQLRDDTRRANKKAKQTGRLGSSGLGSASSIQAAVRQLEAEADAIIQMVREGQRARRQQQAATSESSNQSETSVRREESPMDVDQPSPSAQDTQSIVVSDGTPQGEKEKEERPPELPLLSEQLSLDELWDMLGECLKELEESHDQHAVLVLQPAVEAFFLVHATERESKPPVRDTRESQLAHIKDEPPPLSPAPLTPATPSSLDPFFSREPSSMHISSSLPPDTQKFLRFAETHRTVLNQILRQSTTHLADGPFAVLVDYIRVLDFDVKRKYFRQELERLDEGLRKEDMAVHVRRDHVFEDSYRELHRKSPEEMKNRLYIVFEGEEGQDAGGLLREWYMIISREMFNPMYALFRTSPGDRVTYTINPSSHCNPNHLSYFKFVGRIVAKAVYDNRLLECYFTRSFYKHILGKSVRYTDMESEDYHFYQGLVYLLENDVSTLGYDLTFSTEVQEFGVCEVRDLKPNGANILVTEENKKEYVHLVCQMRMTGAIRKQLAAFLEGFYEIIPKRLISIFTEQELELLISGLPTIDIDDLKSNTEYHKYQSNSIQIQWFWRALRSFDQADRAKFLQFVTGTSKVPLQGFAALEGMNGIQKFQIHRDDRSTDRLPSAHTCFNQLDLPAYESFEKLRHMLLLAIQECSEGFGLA

The target of test [2] is Huwe1 (HECT, UBA and WWE domain containing 1) (rat (endogenous in primary cortical neurons)) (UniProt P51593). Described as above.

Drawing on paper PMC4690333, this text covers binding for two molecules.

These are yes or no findings as the source states them, for the method shown. In cells and extracts the contact can be indirect. Some entries that bind do so weakly or less than the wild type.

As for “Huwe1 (HECT, UBA and WWE domain containing 1) (from UniProt P51593 1-4454) (enzyme)”, the binding result in test [1] is “binds”.

B1: Growth arrest and DNA-damage inducible protein 45 beta (Gadd45b) (protein, UniProt F7FLQ8 1-160)
chain: T1 sequence
Regarding B1, in test [2], the binding entry was “binds”.
